Assay results published in PMC12361992.
These are yes or no findings as the source states them, for the method shown. In cells and extracts the contact can be indirect. Some entries that bind do so weakly or less than the wild type.

Chains of the proteins cited; added tags and fusions are not shown.
UniProt O14503: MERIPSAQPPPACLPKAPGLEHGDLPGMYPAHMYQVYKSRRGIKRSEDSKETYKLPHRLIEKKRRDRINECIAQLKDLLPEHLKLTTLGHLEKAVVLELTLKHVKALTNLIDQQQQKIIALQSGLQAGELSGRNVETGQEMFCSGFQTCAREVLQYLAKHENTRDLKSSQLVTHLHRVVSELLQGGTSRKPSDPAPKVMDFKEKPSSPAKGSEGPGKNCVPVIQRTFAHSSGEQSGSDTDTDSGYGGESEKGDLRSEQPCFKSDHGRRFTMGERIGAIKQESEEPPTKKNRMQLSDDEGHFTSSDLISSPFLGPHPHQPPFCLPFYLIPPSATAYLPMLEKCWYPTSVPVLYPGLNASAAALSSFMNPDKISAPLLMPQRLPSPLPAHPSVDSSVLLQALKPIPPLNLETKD

Biological target: basic helix-loop-helix family member E40 (BHLHE40) (human (endogenous in the paper's human cell lines; line not stated for this experiment)) (UniProt O14503)
Test: co-IP; endogenous proteins; cells lysed in RIPA buffer with protease and phosphatase inhibitors; supernatant incubated with anti-BHLHE40 antibody at 4 °C overnight, protein A/G magnetic beads, washed with RIPA buffer; western blot with anti-CCDC86 antibody

binding: binds
B1: coiled-coil domain containing 86 (CCDC86) (protein, UniProt Q9H6F5 1-360)
chain: MDTPLRRSRRLGGLRPESPESLTSVSRTRRALVEFESNPEETREPGSPPSVQRAGLGSPERPPKTSPGSPRLQQGAGLESPQGQPEPGAASPQRQQDLHLESPQRQPEYSPESPRCQPKPSEEAPKCSQDQGVLASELAQNKEELTPGAPQHQLPPVPGSPEPYPGQQAPGPEPSQPLLELTPRAPGSPRGQHEPSKPPPAGETVTGGFGAKKRKGSSSQAPASKKLNKEELPVIPKGKPKSGRVWKDRSKKRFSQMLQDKPLRTSWQRKMKERQERKLAKDFARHLEEEKERRRQEKKQRRAENLKRRLENERKAEVVQVIRNPAKLKRAKKKQLRSIEKRDTLALLQKQPPQQPAAKI
